The other results are listed elsewhere or left out. Shown are side measurements of this screen, not its main read-out; they come without a call. Most of these compounds were active or inconclusive in the main read-out, so they are no random draw.

The assay in a line: hepatocyte lipid droplet accumulation inhibitors, confirmation, imaging, AML12 mouse hepatocytes, single concentration, high-content (AID 463183).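 Also: cells counted after overnight compound exposure.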 The settings on record: BODIPY lipid droplet imaging, measured here: cell count, cytotoxicity, at 5.2 µM, droplets induced with 100 µM oleic acid.
As for `CCN(CC)S(=O)(=O)c1cc(NC(=O)C(C)OC(=O)c2[nH]c(C)c(C(C)=O)c2C)ccc1C` (centres undefined), the cell count came to 1530 cells.

On to `COc1ccc(N(C(=O)CCl)C(C(=O)NCCc2ccccc2)c2cccs2)cc1Cl` (centres undefined), for which the cell count came to 20.2 cells.

The molecule `O=[N+]([O-])c1cc(Cl)ccc1NCCNc1ncc(C(F)(F)F)cc1Cl` had a cell count of 1510 cells.

In turn, `Cc1ccc(-n2nc(C)c3c(=O)[nH]c(C(F)(F)F)nc32)cc1` came in with a cell count of 1570 cells.

With `COc1ccc(OC)c(NC(=O)Cc2coc3ccc4ccccc4c23)c1`, the cell count stood at 1570 cells.

`N/C(Cc1ccc(Cl)cc1Cl)=N\OC(=O)c1ccc(Br)o1` displayed a cell count of 1610 cells.

In the case of `CCOc1ccc(CCNC(=O)COc2cc(=O)n(C)c3ccccc23)cc1OCC`, the cell count turned out to be 1640 cells.

`N=c1c(C(=O)NCCN2CCOCC2)cc2c(=O)n3ccccc3nc2n1CCCN1CCOCC1` yielded a cell count of 1580 cells.

`CC(=O)Nc1ccc(-c2csc(NC(=O)Cc3ccccc3F)n2)cc1` returned a cell count of 1670 cells.

`COc1ccc(C(C(=O)NC(C)(C)C)N(Cc2cccs2)C(=O)CCC(=O)Nc2cc(C)on2)cc1` (centres undefined) gave a cell count of 1630 cells.

In the case of `N/C(=N/O)c1nc(N2CCCC2)nc(N(c2ccccc2)c2ccccc2)n1`, the cell count was determined as 1610 cells.

In the case of `CC(C)c1ccccc1-n1c(SCC(=O)c2ccc3c(c2)NC(=O)CO3)nc2ccccc2c1=O`, the cell count is 1590 cells.

For the molecule `CCNC(=S)N1CCc2cc(OC)c(OC)cc2C1COc1ccc(F)cc1` (centres undefined), the cell count is 1600 cells.

For `Cc1ccccc1OCC(=O)NCCCNC(=O)c1ccccn1`, the cell count is 1620 cells.

On to `CCOc1ccc(CCNC(=O)COC(=O)c2c(C)nn(-c3ccccc3)c2C)cc1OCC`, for which the cell count amounted to 1630 cells.

With `COc1cc2c(cc1NC(=O)CSc1nc3ccc(C)cc3[nH]1)oc1ccccc12`, the cell count was 1540 cells.

`O=C(NCc1ccc(C(=O)O)cc1)OCc1ccccc1` showed a cell count of 1530 cells.

On to `CCOC(=O)n1cc(-c2cnc(CNC(=O)C(C)(c3ccccc3)c3ccccc3)o2)c2ccccc21`, for which the cell count came out at 1570 cells.

Regarding `COc1ccc(C(=O)OCC(=O)NC(C)CCc2ccccc2)c(OC)c1` (centres undefined), the cell count turned out to be 1590 cells.

In turn, `COc1ccc(/C=C(/NC(=O)c2cccs2)C(=O)Nc2ccc(C)cc2)cc1OC` displayed a cell count of 1610 cells.

With `CC(=O)Nc1cccc(OCC(=O)NC(C)c2ccc3ccccc3c2)c1` (centres undefined), the cell count turned out to be 1550 cells.

The molecule `CC1CCCN(C(=O)c2ccc3c(c2NCCO)C(=O)c2ccccc2C3=O)C1` (centres undefined) came in with a cell count of 1680 cells.

`COc1ccc2c(c1)O[C@@H](c1cccc(C(F)(F)F)c1)[C@H](OC(=O)NCCc1ccc(OC)c(OC)c1)C2=O` registered a cell count of 1570 cells.

The molecule `COc1ccc(C)cc1NC(=O)CCC(=O)Nc1ccc2nc(N3CCN(C)CC3)cc(C)c2c1` came in with a cell count of 1580 cells.

In turn, `CCOc1ccccc1NC(=O)N1CCC(C(=O)c2ccc(F)cc2)CC1` gave a cell count of 1610 cells.

Consider `c1ccc(-c2nc(N3CCOCC3)cc(N3CCOCC3)n2)cc1`, for which the cell count was found to be 1560 cells.

`FC(F)Oc1ccc(-c2csc(NNC3=NCCCCC3)n2)cc1` came in with a cell count of 1540 cells.

Turning to `CCOc1ccc(CCNC(=O)CCC(=O)N2CCSc3ccccc32)cc1OCC`, the cell count worked out at 1640 cells.

In turn, `CC/C(=N/Nc1ccccc1Cl)c1cnnc(-c2ccccc2)n1` yielded a cell count of 1700 cells.

Molecule `COC(=O)c1ccc(-c2noc(CN(C)CC3CCCCO3)n2)cc1` (centres undefined) yielded a cell count of 1540 cells.

`C=CCN(C(=O)c1csnn1)C(C(=O)NCc1ccccc1)c1ccccc1F` (centres undefined) yielded a cell count of 1520 cells.

As for `O=C1CN(C(=O)Cn2ncc(Cl)c(Cl)c2=O)c2ccccc2N1`, the cell count came to 1630 cells.

In turn, `c1cc[n+](CCC[n+]2ccccc2)cc1` gave a cell count of 1560 cells.

`COc1ccc(C(C(=O)NC(C)(C)C)N(Cc2ccccc2)C(=O)CCC(=O)Nc2cc(C)on2)cc1` (centres undefined) registered a cell count of 1580 cells.

`Cc1ccc(CNC(=O)CCCc2c[nH]c3ccccc23)cc1` registered a cell count of 1600 cells.

With `CCN(CC)c1ccc(/C=C2\CCC(/C=C(\C#N)C(=O)Nc3ccccc3F)=C2N2CCOCC2)cc1`, the cell count is 1570 cells.

Regarding `CCOc1ccc(-c2csc(NNC3=NCCCCC3)n2)cc1`, the cell count was 1630 cells.

Molecule `Cc1ccc(-n2nc3c(=O)n(CC(=O)NC4CCCCC4)nc(C)c3c2C)cc1` had a cell count of 1640 cells.

With `Cc1noc(C)c1C(=O)Nc1ccc(F)cc1F`, the cell count turned out to be 1600 cells.

These data come from PubChem BioAssay AID463183 (Sanford-Burnham Center for Chemical Genomics, 2010).
